Measured values taken from patent publication US8148391B2 (Cephalon, Inc., priority 2006, dated 2012).

The chains behind the UniProt entries cited, without tags or fusion partners. Residues count along the entry.
UniProt Q9UM73, 19-1620: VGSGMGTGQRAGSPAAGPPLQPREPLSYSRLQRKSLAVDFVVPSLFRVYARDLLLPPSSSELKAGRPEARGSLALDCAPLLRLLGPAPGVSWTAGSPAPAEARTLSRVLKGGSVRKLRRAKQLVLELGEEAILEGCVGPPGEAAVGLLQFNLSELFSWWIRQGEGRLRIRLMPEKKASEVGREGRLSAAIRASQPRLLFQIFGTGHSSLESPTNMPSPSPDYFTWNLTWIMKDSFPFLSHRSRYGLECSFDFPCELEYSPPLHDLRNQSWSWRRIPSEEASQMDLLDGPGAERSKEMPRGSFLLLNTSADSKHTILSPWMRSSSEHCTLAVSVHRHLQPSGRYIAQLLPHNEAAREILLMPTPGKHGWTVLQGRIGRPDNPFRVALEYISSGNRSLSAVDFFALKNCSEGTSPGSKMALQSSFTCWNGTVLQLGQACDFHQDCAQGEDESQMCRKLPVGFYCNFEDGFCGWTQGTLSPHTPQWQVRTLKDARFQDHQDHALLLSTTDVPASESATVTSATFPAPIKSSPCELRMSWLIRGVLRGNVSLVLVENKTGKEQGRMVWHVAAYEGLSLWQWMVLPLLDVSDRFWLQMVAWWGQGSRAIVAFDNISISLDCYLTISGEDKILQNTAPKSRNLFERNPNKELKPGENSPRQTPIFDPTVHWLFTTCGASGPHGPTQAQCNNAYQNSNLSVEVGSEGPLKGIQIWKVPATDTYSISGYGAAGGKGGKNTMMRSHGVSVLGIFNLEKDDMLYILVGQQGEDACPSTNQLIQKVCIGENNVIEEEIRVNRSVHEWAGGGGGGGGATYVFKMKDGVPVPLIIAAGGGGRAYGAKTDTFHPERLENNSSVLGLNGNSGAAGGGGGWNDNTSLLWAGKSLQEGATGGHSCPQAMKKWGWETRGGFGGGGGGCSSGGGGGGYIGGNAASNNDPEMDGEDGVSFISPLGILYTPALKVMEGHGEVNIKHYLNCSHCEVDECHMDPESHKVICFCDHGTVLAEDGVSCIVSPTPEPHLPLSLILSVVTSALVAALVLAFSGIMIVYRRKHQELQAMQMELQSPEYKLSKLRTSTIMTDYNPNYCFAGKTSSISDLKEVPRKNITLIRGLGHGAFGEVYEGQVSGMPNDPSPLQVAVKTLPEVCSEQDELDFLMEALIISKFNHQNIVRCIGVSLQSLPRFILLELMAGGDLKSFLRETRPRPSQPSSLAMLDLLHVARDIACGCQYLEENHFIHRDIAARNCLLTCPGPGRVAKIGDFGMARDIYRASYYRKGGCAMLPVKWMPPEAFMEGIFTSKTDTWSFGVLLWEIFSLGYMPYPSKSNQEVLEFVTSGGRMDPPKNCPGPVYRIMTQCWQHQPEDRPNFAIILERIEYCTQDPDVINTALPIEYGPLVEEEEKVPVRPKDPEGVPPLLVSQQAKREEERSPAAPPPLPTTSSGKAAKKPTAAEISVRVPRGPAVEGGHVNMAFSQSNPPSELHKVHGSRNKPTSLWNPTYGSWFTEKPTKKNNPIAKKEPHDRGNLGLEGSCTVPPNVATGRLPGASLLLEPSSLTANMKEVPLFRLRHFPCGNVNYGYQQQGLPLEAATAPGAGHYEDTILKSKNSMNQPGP
UniProt P08581, 956-1390 limits assumed: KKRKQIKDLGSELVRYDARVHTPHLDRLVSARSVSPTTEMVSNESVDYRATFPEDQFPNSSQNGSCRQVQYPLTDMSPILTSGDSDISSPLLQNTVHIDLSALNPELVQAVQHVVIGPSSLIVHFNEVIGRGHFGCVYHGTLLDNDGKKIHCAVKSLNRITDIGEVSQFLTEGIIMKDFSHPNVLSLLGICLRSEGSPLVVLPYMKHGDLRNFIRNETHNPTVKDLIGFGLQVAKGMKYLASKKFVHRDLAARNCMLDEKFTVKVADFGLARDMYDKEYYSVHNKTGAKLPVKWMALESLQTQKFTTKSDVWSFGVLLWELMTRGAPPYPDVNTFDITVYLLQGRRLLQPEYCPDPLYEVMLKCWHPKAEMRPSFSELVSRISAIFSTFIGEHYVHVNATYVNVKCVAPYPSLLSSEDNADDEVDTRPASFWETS

What was measured:
[1] = biological target: T1, baculovirus-expressed ALK (Homo sapiens, UniProt Q9UM73); assay: ALK Kinase Assay (ELISA-type, time-resolved fluorescence); type: biochemical; settings: 1 μM ATP (Km level), 30 ng/ml ALK, 37° C., 15 minutes; read-out: ALK Activity (ALK kinase inhibition, IC50 class)
T1 construct: host or cells: baculovirus expression system
Procedure: (§1) Briefly, each 96-well plate was coated with 100 μL/well of 10 μg/mL substrate (phospholipase C-γ) in Tris-buffered saline (TBS). […] The reaction was initiated by adding enzyme (30 ng/ml ALK) and was allowed to proceed at 37° C. for 15 minutes. Detection of the phosphorylated product was performed by adding 100 μl/well of Eu-N1 labeled PT66 antibody (Perkin Elmer # AD0041).
(§2) Data analysis was performed using ActivityBase (IDBS, Guilford, UK). IC50 values were calculated by plotting percent inhibition versus log10 of the concentration of compound and fitting to the nonlinear regression sigmoidal dose-response (variable slope) equation in XLFit (IDBS, Guilford, UK).

[2] = biological target: T2, c-Met (cytoplasmic domain) (Homo sapiens, UniProt P08581); assay: c-Met Kinase Assay (same methods as for ALK, with modifications); type: biochemical; settings: 1 μM ATP (Km level), 10 ng/mL c-Met; read-out: cMet Activity (c-Met kinase inhibition, IC50 class)
T2 construct: 10 ng/mL c-Met (cytoplasmic domain, Invitrogen Corporation #PV3143); purchased Invitrogen Corporation PV3143
Procedure: as §1, §2
Reactions were initiated with 10 ng/mL c-Met (cytoplasmic domain, Invitrogen Corporation #PV3143).

CCN1C(=O)C(NC(=O)C(F)(F)F)CCc2c1ccc(Nc1ncc(Cl)c(Nc3ccc(N(C)C)cc3OC)n1)c2OC (centres unmarked) [Example 1341, N-{7-[5-Chloro-4-(4-dimethylamino-2-methoxy-phenylamino)-pyrimidin-2-ylamino]-1-ethyl-6-methoxy-2-oxo-2,3,4,5-tetrahydro-1H-benzo[b]azepin-3-yl}-2,2,2-trifluoro-acetamide]
IC50 [1]: < 0.1 µM
IC50 [2]: > 10 µM
